The target of the experiment is human RORγt ligand binding domain (264–518), His6-tagged (human). Nature of the experiment: FRET or BRET; TR-FRET in solution: 5 nM His6-tagged RORγt-LBD, 90 nM biotinylated RIP140 co-activator peptide, 0.45 nM Cy5-labelled streptavidin, 1.5 nM Europium-labelled anti-His6 antibody; 1 hr incubation with compound; emissions at 615 nm and 665 nm; both purified. On the technique in general: Bioluminescence resonance energy transfer reports proximity on the nanometre scale.

The record followed here is paper PMC5695821, “Pharmacological inhibition of RORγt suppresses the Th17 pathway and alleviates arthritis in vivo” (PLoS ONE, 2017).

Results are given in words; binding and its absence hold for the method and conditions named. A result given as binding can be weak or reduced; the word gives no strength.

As to NSHQKVTLLQLLLGHKNEEN (biotinyl-NH-Ahx at the N-terminus; C-terminal amide (CONH2)) [biotinylated RIP140 derived co-activator peptide], the binding result is reported as “binds”.
